One substance from paper PMC6377607 can be followed below.

The chains behind the UniProt entries cited, without tags or fusion partners. Where a name states a change or a piece, a line headed by the entry shows the natural chain unless it says otherwise.
UniProt Q9XF23: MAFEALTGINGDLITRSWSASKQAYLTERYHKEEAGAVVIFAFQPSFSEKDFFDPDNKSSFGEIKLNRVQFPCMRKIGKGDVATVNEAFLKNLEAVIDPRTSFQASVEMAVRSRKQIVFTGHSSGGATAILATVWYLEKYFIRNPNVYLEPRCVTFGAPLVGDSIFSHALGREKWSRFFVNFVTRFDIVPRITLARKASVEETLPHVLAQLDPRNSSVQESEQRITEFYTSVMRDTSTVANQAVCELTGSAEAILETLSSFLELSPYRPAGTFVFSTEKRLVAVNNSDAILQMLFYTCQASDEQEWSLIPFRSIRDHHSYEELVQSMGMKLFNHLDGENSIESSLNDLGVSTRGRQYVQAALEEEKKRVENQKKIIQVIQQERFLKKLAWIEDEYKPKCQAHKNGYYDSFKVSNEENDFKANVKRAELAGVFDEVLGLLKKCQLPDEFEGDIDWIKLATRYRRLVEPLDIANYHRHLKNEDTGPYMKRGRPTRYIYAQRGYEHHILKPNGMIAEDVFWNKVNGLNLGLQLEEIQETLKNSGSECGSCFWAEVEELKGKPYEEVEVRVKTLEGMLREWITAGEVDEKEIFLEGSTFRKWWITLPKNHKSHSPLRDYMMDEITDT

In the assay the target is T1, Phytoalexin deficient4 (PAD4), yeast two-hybrid fusion (Arabidopsis) (UniProt Q9S745).
T1 sequence: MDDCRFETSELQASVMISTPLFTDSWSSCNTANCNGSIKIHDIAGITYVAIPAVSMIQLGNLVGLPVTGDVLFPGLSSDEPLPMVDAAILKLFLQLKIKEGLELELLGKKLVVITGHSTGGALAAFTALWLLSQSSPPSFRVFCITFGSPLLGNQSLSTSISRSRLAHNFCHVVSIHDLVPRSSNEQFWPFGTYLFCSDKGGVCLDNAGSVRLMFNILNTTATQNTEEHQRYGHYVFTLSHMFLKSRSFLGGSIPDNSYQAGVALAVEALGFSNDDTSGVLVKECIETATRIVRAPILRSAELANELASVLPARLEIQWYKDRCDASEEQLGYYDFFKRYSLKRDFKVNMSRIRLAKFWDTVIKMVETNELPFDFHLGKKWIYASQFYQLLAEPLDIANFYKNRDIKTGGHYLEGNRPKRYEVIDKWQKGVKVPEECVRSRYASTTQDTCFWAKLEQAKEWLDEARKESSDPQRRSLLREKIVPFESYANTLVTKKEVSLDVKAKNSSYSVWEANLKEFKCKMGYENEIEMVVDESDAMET
Put plainly: two-hybrid; Matchmaker system (Clontech), yeast strain AH109, fusions in pGADT7 and pGBKT7; reporter activation on plates lacking leucine, tryptophan, histidine and adenine, growth recorded after 2-5 days at 30 °C.

No constants are given. Whether binding was seen depends on the method and setting. Binding can be weak; no strength is given. Tags and fused reporters may be left off the sequences shown.

As to “EDS1^LLIF lipase-like domain mutant, yeast two-hybrid fusion (from UniProt Q9XF23)”, the binding entry is given as “binds weakly”.
